Results are given in words; binding and its absence hold for the method and conditions named. A result given as binding can be weak or reduced; the word gives no strength.
Biological target: RSV protein G (human respiratory syncytial virus, strain not stated)
Test: ELISA, FLISA and/or Biacore

Binder | binding
antibody 816 (clone 816) (antibody, human IgG1, kappa, V domains shown) VH: EVQLLESGGGLVQPGGSLRLSCVASGFTFSTYAMTWVRQAPGKGLEWVSVIRASGDSEIYADSVRGRFTISRDNSKNTVFLQMDSLRVEDTAVYFCANIGQRRYCSGDHCYGHFDYWGQGTLVTVSS VL: DIVMTQSPLSLPVTPGEPASISCRSSQSLLHSDGRYYVDWYLQKPGQSPHLLIYLASNRASGVPDRFTGSGSGTDFTLKISRVEAEDVGVYYCMQGLHTPWTFGQGTKVDIKR | binds
antibody 835 (clone 835) (antibody, human IgG1, kappa, V domains shown) VH: QVQLVQSGAEVKRPGASVKVSCKASGYTFISYGFSWVRQAPGQGLEWMGWSSVYNGDTNYAQKFHGRVNMTTDTSTNTAYMELRGLRSDDTAVYFCARDRNVVLLPAAPFGGMDVWGQGTMVTVSS VL: DIQLTQSPSFLSASLEDRVTITCRASQGISSYLAWYQQKPGKAPKLLLDAASTLQSGVPSRFSGSGSGTEFTLTISSLQPEDFATYYCQQLNSYPRTFGQGTKVDIKR | binds

Source: US20080226630A1
